# Test results from doi:10.1101/293738.
# By UniProt entry, the sequences of proteins in these tests, tags left out. Residues count along the entry.
# UniProt Q9RQQ9, 2-768: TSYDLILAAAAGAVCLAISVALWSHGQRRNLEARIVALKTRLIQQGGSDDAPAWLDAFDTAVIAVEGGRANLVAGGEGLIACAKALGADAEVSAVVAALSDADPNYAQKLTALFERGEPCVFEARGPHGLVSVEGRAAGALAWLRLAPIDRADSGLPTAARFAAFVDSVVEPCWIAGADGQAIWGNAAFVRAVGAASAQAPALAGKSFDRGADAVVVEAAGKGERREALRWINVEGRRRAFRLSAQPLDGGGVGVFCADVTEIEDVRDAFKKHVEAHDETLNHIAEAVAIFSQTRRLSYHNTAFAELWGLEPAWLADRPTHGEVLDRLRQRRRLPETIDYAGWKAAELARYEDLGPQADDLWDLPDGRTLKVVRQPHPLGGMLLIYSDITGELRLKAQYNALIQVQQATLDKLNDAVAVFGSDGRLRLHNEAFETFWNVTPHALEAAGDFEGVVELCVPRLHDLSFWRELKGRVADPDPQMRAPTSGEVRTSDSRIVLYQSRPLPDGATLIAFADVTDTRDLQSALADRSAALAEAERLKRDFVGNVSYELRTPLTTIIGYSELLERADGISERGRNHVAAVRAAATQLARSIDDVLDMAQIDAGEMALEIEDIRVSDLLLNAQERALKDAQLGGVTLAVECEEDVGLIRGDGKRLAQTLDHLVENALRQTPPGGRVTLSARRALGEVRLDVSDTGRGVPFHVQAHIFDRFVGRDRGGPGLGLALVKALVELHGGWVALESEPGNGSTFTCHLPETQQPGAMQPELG
# UniProt P37894, 7-842: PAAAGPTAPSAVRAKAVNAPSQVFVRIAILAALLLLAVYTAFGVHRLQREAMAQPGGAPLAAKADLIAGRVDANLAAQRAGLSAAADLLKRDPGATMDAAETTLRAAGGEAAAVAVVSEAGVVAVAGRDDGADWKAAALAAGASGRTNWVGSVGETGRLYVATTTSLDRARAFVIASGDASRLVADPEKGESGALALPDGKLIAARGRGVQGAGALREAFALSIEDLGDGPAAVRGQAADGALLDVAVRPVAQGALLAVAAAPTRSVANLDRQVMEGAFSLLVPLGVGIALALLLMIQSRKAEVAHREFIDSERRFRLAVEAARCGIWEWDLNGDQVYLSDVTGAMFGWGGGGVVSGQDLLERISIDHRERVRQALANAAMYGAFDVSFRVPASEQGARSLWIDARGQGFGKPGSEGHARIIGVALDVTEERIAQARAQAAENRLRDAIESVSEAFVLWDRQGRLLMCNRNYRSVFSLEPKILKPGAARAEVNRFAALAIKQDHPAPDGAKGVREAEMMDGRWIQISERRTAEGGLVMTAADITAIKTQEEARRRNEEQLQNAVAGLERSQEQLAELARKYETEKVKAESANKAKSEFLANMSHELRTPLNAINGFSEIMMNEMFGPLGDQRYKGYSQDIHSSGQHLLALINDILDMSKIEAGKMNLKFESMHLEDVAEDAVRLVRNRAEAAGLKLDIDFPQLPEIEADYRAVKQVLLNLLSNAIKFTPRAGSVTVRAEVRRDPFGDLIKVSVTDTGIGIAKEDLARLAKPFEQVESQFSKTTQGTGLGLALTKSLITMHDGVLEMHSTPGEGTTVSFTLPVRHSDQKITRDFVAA
# UniProt P0CAW2, whole entry: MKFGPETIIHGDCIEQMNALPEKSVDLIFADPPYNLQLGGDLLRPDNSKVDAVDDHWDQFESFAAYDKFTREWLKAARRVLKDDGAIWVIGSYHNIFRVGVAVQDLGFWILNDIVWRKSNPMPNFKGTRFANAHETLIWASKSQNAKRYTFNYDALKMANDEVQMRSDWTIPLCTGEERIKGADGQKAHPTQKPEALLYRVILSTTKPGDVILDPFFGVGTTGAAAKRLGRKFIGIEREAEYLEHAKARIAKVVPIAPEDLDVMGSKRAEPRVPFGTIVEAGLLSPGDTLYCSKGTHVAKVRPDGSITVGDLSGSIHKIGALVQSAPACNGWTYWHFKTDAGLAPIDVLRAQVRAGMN
# These are yes or no findings as the source states them, for the method shown. Some entries that bind do so weakly or less than the wild type. For some of these results: Tags and fused reporters may be left off the sequences shown.
# What was measured:
# [1] = molecular target: T1, LonS674A held on Ni-NTA beads (LonS674A6) (Caulobacter crescentus) (UniProt P0CAW0); experiment: pull-down
# T1 sequence: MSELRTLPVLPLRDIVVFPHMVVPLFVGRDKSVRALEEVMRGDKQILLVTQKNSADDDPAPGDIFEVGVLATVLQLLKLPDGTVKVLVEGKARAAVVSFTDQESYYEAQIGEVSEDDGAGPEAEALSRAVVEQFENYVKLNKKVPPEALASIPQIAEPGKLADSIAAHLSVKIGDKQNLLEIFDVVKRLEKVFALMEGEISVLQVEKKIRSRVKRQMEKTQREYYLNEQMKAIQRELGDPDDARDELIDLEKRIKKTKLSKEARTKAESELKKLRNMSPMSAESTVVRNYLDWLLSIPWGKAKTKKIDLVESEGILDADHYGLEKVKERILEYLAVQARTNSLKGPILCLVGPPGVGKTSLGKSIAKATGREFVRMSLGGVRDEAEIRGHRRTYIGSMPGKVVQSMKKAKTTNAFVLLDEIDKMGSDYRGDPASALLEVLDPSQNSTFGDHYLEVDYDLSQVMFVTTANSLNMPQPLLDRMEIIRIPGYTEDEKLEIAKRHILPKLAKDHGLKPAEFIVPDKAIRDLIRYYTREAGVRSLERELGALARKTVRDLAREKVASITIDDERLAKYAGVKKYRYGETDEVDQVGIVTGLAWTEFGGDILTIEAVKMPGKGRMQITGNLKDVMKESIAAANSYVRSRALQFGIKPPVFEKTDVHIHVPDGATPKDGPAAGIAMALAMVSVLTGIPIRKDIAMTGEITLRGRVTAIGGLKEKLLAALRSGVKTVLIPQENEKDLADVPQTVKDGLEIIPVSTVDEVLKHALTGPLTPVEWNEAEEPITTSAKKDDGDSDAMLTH
# [2] = molecular target: DivL (residues 2-768) fused to T18 (Caulobacter crescentus) (UniProt Q9RQQ9); experiment: two-hybrid
# [3] = molecular target: PleC (residues 7-842) fused to T18 (Caulobacter crescentus) (UniProt P37894); experiment: two-hybrid
# [4] = molecular target: T2, PodJ fused to T18 (Caulobacter crescentus) (UniProt Q9ZG88); experiment: two-hybrid
# T2 sequence: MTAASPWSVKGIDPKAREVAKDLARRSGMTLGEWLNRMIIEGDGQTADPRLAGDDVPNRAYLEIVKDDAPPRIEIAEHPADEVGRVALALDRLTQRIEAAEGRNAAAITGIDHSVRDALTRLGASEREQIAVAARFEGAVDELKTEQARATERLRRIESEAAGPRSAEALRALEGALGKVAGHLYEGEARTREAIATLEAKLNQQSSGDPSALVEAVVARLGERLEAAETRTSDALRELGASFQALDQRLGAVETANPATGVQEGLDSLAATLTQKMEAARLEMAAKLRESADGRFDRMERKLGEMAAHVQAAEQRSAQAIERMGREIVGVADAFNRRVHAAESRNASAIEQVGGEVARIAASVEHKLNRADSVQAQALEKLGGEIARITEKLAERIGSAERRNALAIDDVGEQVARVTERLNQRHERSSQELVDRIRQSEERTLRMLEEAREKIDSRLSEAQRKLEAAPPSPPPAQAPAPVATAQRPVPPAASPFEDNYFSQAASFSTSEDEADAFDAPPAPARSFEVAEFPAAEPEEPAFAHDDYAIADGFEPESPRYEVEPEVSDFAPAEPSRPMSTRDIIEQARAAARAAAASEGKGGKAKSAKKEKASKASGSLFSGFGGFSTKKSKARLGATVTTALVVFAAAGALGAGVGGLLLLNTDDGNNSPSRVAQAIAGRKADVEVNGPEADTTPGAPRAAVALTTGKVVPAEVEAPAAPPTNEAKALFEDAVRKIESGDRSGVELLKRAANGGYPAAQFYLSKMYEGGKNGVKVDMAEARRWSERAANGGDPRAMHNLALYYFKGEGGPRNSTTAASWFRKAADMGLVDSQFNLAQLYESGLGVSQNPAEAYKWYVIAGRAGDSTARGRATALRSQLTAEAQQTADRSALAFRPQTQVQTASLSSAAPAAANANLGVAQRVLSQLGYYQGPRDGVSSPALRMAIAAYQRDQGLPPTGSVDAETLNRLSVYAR
binding [1],Substance,binding [2],binding [3],binding [4]
binds weakly,CcrM DNA methyltransferase (purified recombinant) (from UniProt P0CAW2 1-358) (enzyme),–,–,–
–,CcrM fused to the T25 fragment (bacterial two-hybrid) (from UniProt P0CAW2 1-358) (enzyme),no binding,no binding,no binding
